This is an account of results in PubChem BioAssay AID2685 (National Center for Advancing Translational Sciences (NCATS), 2010).

This is one part of the list. Shown are side measurements of this screen, not its main read-out; they come without a call. Most of these compounds were active or inconclusive in the main read-out, so they are no random draw. Potencies come from curve fits of mixed quality, noted in brackets.

This assay is described as follows: qHTS Assay for Lipid Storage Modulators in Drosophila S3 Cells.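 On cell number change: cells counted by Cell Tracker Red CMTPX staining in the red channel.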 The settings on record: BODIPY lipid droplet fluorescence, 18-24 h; for cell number change: measured here: cell count max response, cells fed with added oleic acid. A digest of the protocol: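 Laser-scanning cytometry quantifies lipid droplet accumulation (500–530 nm total intensity; droplet/cell object ratio) in oleic acid-fed (400 uM added) Drosophila S3 cells treated with a concentration series. 20 uM Triacsin C defined 100% inhibition.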

The mark [1] stands for this setting: measured here: lipid fluorescence (Fed channel) AC50, cells fed with added oleic acid.
The mark [2] stands for this setting: measured here: cell number channel AC50, cells fed with added oleic acid.

On to `COc1cc(OC)cc(C(=O)NNC(=O)c2ccc3ccccc3n2)c1`, for which the cell number change is -8.03%.
The term AC50 denotes the concentration at which the activity in the assay is half-maximal. Take `Cc1ccc(Cl)cc1N1CCN(S(=O)(=O)c2ccc3[nH]c(=O)ccc3c2)CC1`: the cell number change is -1.44%. Further, under setting [1], the AC50 was 16.4 µM [falling, single point].
`COc1ccc(N(CC(=O)NCc2ccc(Cl)cc2)S(=O)(=O)c2ccccc2[N+](=O)[O-])c(OC)c1`: the cell number change is -16.1%. Besides, under setting [1], the AC50 was 20.6 µM [falling, partial curve, poor fit].
On to `Cc1cccc(NC(=O)CN(C)C(=O)C2CCCC2)c1C`, for which the cell number change is 5.06%. For the same molecule, under setting [1], the AC50 was 5.17 µM [rising, full curve, poor fit].
In the case of `Cc1cc(C)c2nc(N3CCCC(C(=O)NCCCN4CCOCC4)C3)sc2c1` (centres undefined), the cell number change is 49.9%. The AC50 under setting [2] was 9.2 µM [rising, partial curve].
Turning to `Cc1cc(C)c(NC(=O)Cn2nnc(C(=O)NCc3ccco3)c2N)c(C)c1`, the cell number change amounted to 67.3%. Further, the AC50 under setting [2] was 10.3 µM [rising, partial curve]. Also, the AC50 under setting [1] was 16.4 µM [rising, partial curve].
On to `Cc1cccc(C)c1NC(=O)CN(C)C(=O)CCc1nc2sc3c(c2c(=O)[nH]1)CCCC3`, for which the cell number change is 3.89%.
In the case of `Cc1noc(C)c1COC(=O)COc1cccc2c1OC(C)(C)C2`, the cell number change came out at 1.82%.
Regarding `CCOc1cccc(OCCOCCn2cnc3ccccc3c2=O)c1`, the cell number change stood at 100%. Further, the AC50 under setting [2] is 23.1 µM [rising, partial curve].
For `O=C(CSc1nc2ccccc2s1)Nc1ccc(N2CCOCC2)c(Cl)c1`, the cell number change was -21.2%. Besides, under setting [1], the AC50 is 16.4 µM [falling, single point].
Take `c1ccc(SCCCCNC2CCCC2)cc1`: the cell number change stood at 88.3%. Besides, the AC50 under setting [2] was 3.66 µM [rising, full curve, poor fit].
In the case of `CC(=O)c1c(C)[nH]c(C(=O)NCCc2ccccc2)c1C`, the cell number change was -10.3%. Besides, the AC50 under setting [1] was 0.00517 µM [rising, full curve, poor fit].
Consider `Cc1ccccc1OCCn1c(C)nc2ccccc21`, for which the cell number change was -25.5%.
In the case of `CC(C)NC[C@@H](O)COc1ccc(CC(N)=O)cc1`, the cell number change was -39.4%. Also, under setting [2], the AC50 was 29.1 µM [falling, single point]. In addition, the AC50 under setting [1] is 29.1 µM [falling, single point].
Consider `Cc1ccccc1-c1nnc(-c2ccccc2)o1`, for which the cell number change was -34.9%. The AC50 under setting [2] is 32.6 µM [falling, single point]. For the same molecule, the AC50 under setting [1] was 29.1 µM [falling, single point].
In the case of `O=C(Nc1ccc(F)cc1)C1CCN(C(=O)NCc2ccccc2)CC1`, the cell number change is 7.98%.
In the case of `CC(NC(=O)c1ccc(Cl)cc1Cl)C(c1ccccc1)N1CCOCC1` (centres undefined), the cell number change was 0.611%. In addition, the AC50 under setting [1] is 23.1 µM [rising, single point].
For the molecule `Fc1ccc(NC(=S)Nc2cccnc2)c(F)c1F`, the cell number change was found to be 44.5%. For the same molecule, the AC50 under setting [2] is 29.1 µM [rising, single point]. Moreover, the AC50 under setting [1] is 29.1 µM [rising, single point].
As for `O=C(CNc1cccc(C(F)(F)F)c1)N/N=C/c1cn(-c2ccccc2)nc1-c1ccccc1`, the cell number change was -59.6%. In addition, the AC50 under setting [2] was 32.6 µM [falling, single point]. Besides, under setting [1], the AC50 was 29.1 µM [falling, single point].
On to `CC[C@@]12C(=O)N(c3cccc(Cl)c3)C(=O)N1[C@H](c1cccc(C)c1)[C@@H]1C(=O)N(Cc3ccccc3)C(=O)[C@@H]12`, for which the cell number change was determined as 9.51%. Besides, the AC50 under setting [1] is 2.91 µM [falling, single point].
For the molecule `COc1ccc(Cc2nc3ccc(C(=O)NCCc4ccccn4)cc3o2)cc1OC`, the cell number change was -30.2%. Also, under setting [2], the AC50 is 0.517 µM [falling, full curve, poor fit]. Under setting [1], the AC50 was 0.13 µM [falling, full curve, poor fit].
For the molecule `Cc1cccc(NS(=O)(=O)c2cc(C(=O)N3CCCCCC3)ccc2C)c1`, the cell number change was 5.82%.
Turning to `Cc1ccnc(NCn2nnc3ccccc32)c1`, the cell number change was 0.977%. Also, the concentration at half-maximal activity (AC50) under setting [1] was 14.6 µM [falling, partial curve, poor fit].
`O=C(CSc1nnc(-c2ccccc2)o1)OCc1ccccc1`: the cell number change turned out to be 2.38%.
For `O=C(CCS(=O)(=O)c1ccc(Cl)cc1)Nc1ccc(F)cc1`, the cell number change was -9.15%. Moreover, under setting [1], the AC50 was 0.58 µM [rising, single point].
Regarding `O=C(CSC(=S)N1CCCC1)Nc1ccc(Br)cc1Cl`, the cell number change turned out to be 80%. Also, the AC50 under setting [2] was 29.1 µM [rising, single point].
Regarding `CCOc1cccc2cc(C(=O)NCc3ccccc3)c(=N)oc12`, the cell number change was found to be 25.6%. For the same molecule, under setting [1], the AC50 was 10.3 µM [rising, partial curve, poor fit].
Regarding `O=C(COC(=O)c1cc(-c2ccc(Cl)s2)nc2ccccc12)NCc1ccco1`, the cell number change was -10.7%. The AC50 under setting [2] was 0.58 µM [rising, full curve].
With `CCOC(=O)c1c(NC(=O)C2CCCO2)sc(C(N)=O)c1C` (centres undefined), the AC50 under setting [2] was 4.11 µM [rising, partial curve].
On to `O=C(NCCCN1CCCC1)Nc1ccc(F)cc1`, for which the cell number change is 8.11%. Besides, the AC50 under setting [2] is 0.731 µM [rising, single point].
In the case of `CCNc1cc(N2CCCC2)ccc1[N+](=O)[O-]`, the cell number change was -22%. The AC50 under setting [2] was 6.51 µM [rising, single point]. Also, under setting [1], the AC50 was 6.51 µM [rising, partial curve].
Consider `Clc1ccccc1CN1CCN(/N=C/c2ccncc2)CC1`, for which the cell number change is -23.5%. For the same molecule, under setting [1], the AC50 is 29.1 µM [falling, single point].
Consider `Cc1cc(Cl)c(S(=O)(=O)N2CCCC2)cc1OCC(N)=O`, for which the cell number change was -74%. Besides, the AC50 under setting [2] was 20.6 µM [falling, partial curve]. The AC50 under setting [1] is 20.6 µM [falling, partial curve, poor fit].
As to `CCCCNC(=O)c1cccc(C(=O)NCCCC)c1`, the cell number change is -5.66%. For the same molecule, under setting [1], the half-maximal activity concentration (AC50) is 29.1 µM [falling, single point].
`O=C(COC(=O)c1ccc2c(c1)OCO2)NCc1ccc2c(c1)OCO2`: the cell number change is 62.9%. Moreover, the AC50 under setting [2] is 25.9 µM [rising, single point]. The AC50 under setting [1] is 23.1 µM [rising, partial curve].
In the case of `O=c1c2ccccc2nc(-c2ccc(Cl)c(Cl)c2)n1O`, the cell number change turned out to be 16.1%. Besides, under setting [1], the AC50 was 1.3 µM [falling, partial curve].
As to `CC(=O)Nc1ccc(C(=O)CSc2nccc(=O)[nH]2)cc1`, the cell number change was -73.3%. In addition, under setting [2], the AC50 was 25.9 µM [falling, partial curve]. Moreover, under setting [1], the AC50 was 23.1 µM [falling, partial curve].
Take `CC1CCCCN1CCNC(=O)c1ccc2c(c1)N(Cc1ccccc1F)C(=O)c1ccccc1S2=O` (centres undefined): the cell number change stood at 4.28%. Also, the AC50 under setting [1] is 0.00461 µM [rising, full curve, poor fit].
Turning to `CC1=CC=CC2=NC(=O)CC(C)(C(=O)N(CC(=O)NC3CCCC3)c3ccccc3C)N12` (centres undefined), the cell number change worked out at 1.55%. Also, the AC50 under setting [2] was 4.61 µM [falling, partial curve, poor fit]. Further, the AC50 under setting [1] is 2.59 µM [falling, partial curve].
Take `COc1cccc(NC(=O)c2cccc(OC)c2OC)c1`: the AC50 under setting [1] is 6.51 µM [rising, partial curve].
For `[N-]=[N+]=NCCN1CCN(CCc2ccccc2)CCC1=O`, the cell number change is -1.8%. Moreover, the AC50 under setting [1] is 16.4 µM [rising, partial curve].
For the molecule `Cc1ccnc(NS(=O)(=O)c2ccc(NS(=O)(=O)c3cc(Cl)ccc3Cl)cc2)n1`, the cell number change was -4.03%. For the same molecule, the AC50 under setting [1] was 0.00461 µM [falling, full curve, poor fit].
As to `Cc1cc(C(=O)N/N=C/C=C/c2ccc([N+](=O)[O-])cc2)n[nH]1`, the cell number change was found to be 19.9%. Under setting [1], the AC50 is 20.6 µM [rising, partial curve].
For the molecule `COC(=O)c1ccc(CNC(=O)c2cc(COc3cncc(Cl)c3)on2)cc1`, the cell number change was -31.7%. Also, under setting [2], the AC50 is 29.1 µM [falling, single point]. In addition, the AC50 under setting [1] is 29.1 µM [falling, single point].
For the molecule `COc1ccc(N2C(=O)/C(=C/c3ccc([N+](=O)[O-])cc3)C=C2c2ccccc2)cc1`, the cell number change was 33.6%. In addition, the AC50 under setting [1] is 6.51 µM [falling, single point].
For `O=C(Oc1ccc(Cl)c2cccnc12)c1cccc([N+](=O)[O-])c1`, the cell number change is -79.7%. Also, the AC50 under setting [2] is 18.4 µM [falling, single point]. For the same molecule, the AC50 under setting [1] was 13 µM [falling, partial curve, poor fit].
Consider `O=S(=O)(Nc1nc2ccc(S(=O)(=O)N3CCCCC3)cc2s1)c1ccccc1`, for which the cell number change is 15.9%. Besides, the AC50 under setting [2] is 0.058 µM [rising, full curve, poor fit].
For the molecule `COc1ccc(C(C)(C)C)cc1NC(=O)c1cncc(Br)c1`, the cell number change was -19.4%. The AC50 under setting [1] is 23.1 µM [falling, single point].
As for `CC(=O)Nc1ccc(NCC(O)COc2ccccc2)cc1` (centres undefined), the cell number change is -45.2%. Besides, the AC50 under setting [2] is 29.1 µM [falling, single point]. Under setting [1], the concentration at half-maximal activity (AC50) is 29.1 µM [falling, single point].
Take `C/C(=N\NC(=O)c1nnn(-c2nonc2N)c1CN(C)c1ccccc1)c1ccc(O)cc1`: the cell number change is -1.53%.
Consider `O=C(NCc1ccco1)C(c1cccnc1)N(C(=O)Cn1nnc2ccccc21)c1ccc(F)cc1` (centres undefined), for which the cell number change was determined as 55.2%. For the same molecule, the AC50 under setting [2] was 29.1 µM [rising, single point].
For the molecule `COc1ccc(S(=O)(=O)NCCC(=O)NC(C)c2ccccc2)cc1` (centres undefined), the cell number change came out at 167%. Further, the AC50 under setting [2] is 6.51 µM [falling, partial curve, poor fit].
With `Cc1nc2nc(CSc3nnc(C)s3)cc(=O)n2[nH]1`, the cell number change is -3.25%. Besides, the AC50 under setting [1] was 4.11 µM [falling, single point].
Turning to `O=C(CCCn1c(=S)[nH]c2cc3c(cc2c1=O)OCO3)NCCc1ccccc1Cl`, the cell number change came out at 8.73%. Further, the concentration at half-maximal activity (AC50) under setting [1] was 6.51 µM [falling, single point].
In the case of `Cc1ncc(CN2CCCC(C(=O)Nc3ccc(-c4ccco4)cc3)C2)cn1` (centres undefined), the cell number change amounted to 17%. The AC50 under setting [1] is 29.1 µM [rising, single point].
In the case of `CCN(c1ccc(N=Cc2c(O)n(Cc3ccc(OC)cc3)c(=O)c3ccccc23)cc1)C(C)C`, the cell number change was -77.9%. For the same molecule, the AC50 under setting [2] is 29.1 µM [falling, single point]. Further, the AC50 under setting [1] was 1.46 µM [falling, full curve, poor fit].
For the molecule `O=C(NNC(=O)C1CC(c2cccs2)=NO1)Nc1ccc(Cl)cc1` (centres undefined), the cell number change stood at 5.71%. Also, under setting [1], the AC50 is 29.1 µM [rising, single point].
